Structures can show the parent of a compound that is named as a salt. The list shows a part of the results. Most values lie at the level of the controls, where differences are scatter.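 A single-replicate pilot screen of approved drugs and clinical or known-target compounds measured melting temperature via differential scanning fluorimetry. Top stabilizing hits raised the melting point by 2 °C or more; negative shifts indicate destabilization.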
system: SARS-CoV-2 main protease (Mpro, nsp5); experiment: thermal shift ΔTm of Mpro relative to plate average Tm; higher = stronger thermal stabilization of Mpro (binding); settings: 10 µM; protein concentration 1 µM

Row | Structure (SMILES) | thermal shift ΔTm of Mpro [°C]
1 | CNS(=O)(=O)Cc1ccc2[nH]cc(CCN(C)C)c2c1 [Sumatriptan Succinate] | 0.318
2 | O=C(CCCl)NCc1ccccc1 [Beclamide] | 0.223
3 | CN[C@H](CC(C)C)C(=O)N[C@H]1C(=O)N[C@@H](CC(N)=O)C(=O)N[C@H]2C(=O)N[C@H]3C(=O)N[C@H](C(=O)N[C@H](C(=O)O)c4cc(O)cc(O)c4-c4cc3ccc4O)[C@H](O)c3ccc(c(Cl)c3)Oc3cc2cc(c3O[C@@H]2O[C@H](CO)[C@@H](O)[C@H](O)[C@H]2O[C@H]2C[C@](C)(N)[C@H](O)[C@H](C)O2)Oc2ccc(cc2Cl)[C@H]1O [Vancomycin hydrochloride] | 0.38
4 | NC(=O)c1ncn([C@@H]2O[C@H](CO)[C@@H](O)[C@H]2O)n1 [Ribavirin] | 0.0582
5 | CCOc1ccc2c(c1)C(C)=CC(C)(C)N2 [Ethoxyquin] | 0.112
6 | CCOC(=O)[C@H](CCc1ccccc1)N[C@@H](C)C(=O)N1[C@H](C(=O)O)C[C@@H]2CCC[C@@H]21 [Ramipril] | 0.0507
7 | O=C(NCc1ccncc1)C12CC3CC(C1)CC(c1ccc(Cl)cc1)(C3)C2 | -0.173
8 | CNC(=O)c1ccc(-c2cnc3ncc(Cc4ccc5ncccc5c4)n3n2)cc1F [Capmatinib] | 0.0195
9 | CNC(=O)c1ccc(-c2cnc3ncc(Cc4ccc5ncccc5c4)n3n2)cc1F [Capmatinib 2HCl] | -0.0159
10 | Cc1ccc(S(=O)(=O)n2c(N)nc3ccccc32)cc1 [ML130 (Nodinitib-1)] | -0.0272
11 | CCN(Cc1ccccc1)C(=O)Cn1c(=O)n(C)c2cnc(-c3ccccc3)nc21 [Emapunil] | -0.227
12 | O=C(O)c1cc(=O)c2ccccc2o1 [Chromocarb] | -0.0187
13 | Oc1ccc(Cl)cc1Cc1cc(Cl)ccc1O [Dichlorophen] | 0.303
14 | NS(=O)(=O)c1cc(C(=O)O)c(NCc2ccco2)cc1Cl [Furosemide] | -0.156
15 | CCOc1cc([C@@H](CS(C)(=O)=O)N2C(=O)c3cccc(NC(C)=O)c3C2=O)ccc1OC | -0.247
16 | Cc1cc(C2CCCCC2)n(O)c(=O)c1 [Ciclopirox ethanolamine] | -0.0411
17 | Cc1cc(C2CCCCC2)n(O)c(=O)c1 [Ciclopirox] | 0.0366
18 | CC1=C(C(=O)OC(C)C)C(c2cccc([N+](=O)[O-])c2)C(C(=O)OC2CN(C(c3ccccc3)c3ccccc3)C2)=C(N)N1 (stereo not given) [Azelnidipine] | 0.639
19 | CN[C@H]1CN(c2ccc3c(=O)c(C(=O)O)cn(-c4nccs4)c3n2)C[C@@H]1OC [Voreloxin (SNS-595)] | -0.238
20 | COc1cc(C(=O)NS(=O)(=O)c2ccccc2C)ccc1Cc1cn(C)c2ccc(NC(=O)OC3CCCC3)cc12 [Zafirlukast] | -0.115
21 | Cl[C@H]1[C@H](Cl)[C@@H](Cl)[C@@H](Cl)[C@H](Cl)[C@H]1Cl [Lindane] | 0.216
22 | S=C1SCN(Cc2ccccc2)CN1Cc1ccccc1 [Sulbentine] | 0.058
23 | CCc1cncnc1N1CCN(Cc2nc3ccc(C(F)(F)F)cc3[nH]2)CC1 | -0.219

Row | Structure (SMILES) | thermal shift ΔTm of Mpro [°C]
24 | CC1(C)C(C=C(Cl)c2ccc(Cl)cc2)C1C(=O)OC(C#N)c1ccc(F)c(Oc2ccccc2)c1 (stereo not given) [Flumethrin] | 0.00977
25 | C/C=C(/C)C(=O)O[C@@H]1[C@H](OC(=O)CC(C)C)c2c(ccc3ccc(=O)oc23)OC1(C)C [Praeruptorin C] | -0.167
26 | CNC(=O)c1ccccc1Nc1nc(Nc2ccc3c(c2OC)CCC[C@H](N2CCN(CCO)CC2)C3)ncc1Cl | 0.0505
27 | CC(=O)OCC(=O)[C@@]12N=C(C)O[C@@H]1C[C@H]1[C@@H]3CCC4=CC(=O)C=C[C@]4(C)[C@H]3[C@@H](O)C[C@@]12C [Deflazacort] | 0.0663
28 | OCc1cc(C(O)CNCCCCCCOCCCCc2ccccc2)ccc1O (stereo not given) [Salmeterol Xinafoate] | -0.127
29 | C=C1C[C@@H]2[C@H](CC[C@]3(C)C(=O)CC[C@@H]23)[C@@]2(C)C=CC(=O)C=C12 [Exemestane] | 0.186
30 | Cc1nc2n(c(=O)c1CCN1CCC(c3noc4cc(F)ccc34)CC1)CCCC2 [Risperidone] | -0.0287
31 | CNCCC(Oc1ccc(C(F)(F)F)cc1)c1ccccc1 (stereo not given) [Fluoxetine] | 0.154
32 | CNCCC(Oc1ccc(C(F)(F)F)cc1)c1ccccc1 (stereo not given) [Fluoxetine HCl] | 0.54
33 | C=C1c2c(Cl)ccc(O)c2C(O)=C2C(=O)[C@]3(O)C(O)=C(C(N)=O)C(=O)[C@@H](N(C)C)[C@@H]3[C@@H](O)[C@H]12.O=C(O)c1cc(S(=O)(=O)O)ccc1O [Meclocycline sulfosalicylate salt] | 0.0721
34 | C[C@@H](CN1CC(=O)NC(=O)C1)N1CC(=O)NC(=O)C1 [Dexrazoxane HCl (ICRF-187, ADR-529)] | 0.15
35 | CC(=O)Nc1ccc(CC(=O)O)cc1 [Actarit] | 0.331
36 | Nc1c(Br)cc(Br)cc1C=O [BroMhexine IMpurity B] | 0.459
37 | CC(=O)N[C@H]1[C@H]([C@H](O)[C@H](O)CO)OC(C(=O)O)=C[C@@H]1NC(=N)N [Zanamivir] | 0.148
38 | N#Cc1c(-c2ccccc2)cc(-c2cc(Br)ccc2O)[nH]c1=O | 0.106
39 | CCC(=O)O[C@]1(C(=O)CCl)[C@@H](C)C[C@H]2[C@@H]3C[C@H](F)C4=CC(=O)C=C[C@]4(C)[C@@]3(F)[C@@H](O)C[C@@]21C [Halobetasol Propionate] | -0.156
40 | Cc1c(C(=O)NN2CCOCC2)nn(-c2ccc(Cl)cc2Cl)c1-c1ccc(I)cc1 | -0.485
41 | CCN1CC(CCN2CCOCC2)C(c2ccccc2)(c2ccccc2)C1=O (stereo not given) [Doxapram HCl] | 0.0183
42 | Cc1cnc(CNC(=O)c2c(=O)c3ccc(N4CCCN(C)CC4)nc3n3c2sc2ccccc23)cn1 | 0.342
43 | NC(=O)N1c2ccccc2CCc2ccccc21 [10,11-Dihydrocarbamazepine] | -0.108
44 | CCCCNC(=O)NS(=O)(=O)c1ccc(C)cc1 [Tolbutamide] | -0.00493
45 | C[C@@H]1O[C@@H](O[C@H]2[C@H](Oc3cc(O)c(C(=O)CCc4ccc(O)cc4)c(O)c3)O[C@H](CO)[C@@H](O)[C@@H]2O)[C@H](O)[C@H](O)[C@H]1O [Naringin Dihydrochalcone] | 0.00249

Quoted at random: two entries already listed
Row | Structure (SMILES) | thermal shift ΔTm of Mpro [°C]
17 | Cc1cc(C2CCCCC2)n(O)c(=O)c1 [Ciclopirox] | 0.0366
9 | CNC(=O)c1ccc(-c2cnc3ncc(Cc4ccc5ncccc5c4)n3n2)cc1F [Capmatinib 2HCl] | -0.0159
